{"source": "paper PMC12222672", "biological_target": "β-catenin (human (endogenous in hESCs)) (UniProt P35222)", "assay": "co-IP; endogenous, tag-free proteins from lysate of wt hESCs at 0 and 2 h of PS induction; 1 μg antibody (anti-p53 or anti-β-catenin) with 1 mg lysate protein overnight at 4 °C, Protein G Mag Sepharose; Co-IP buffer (40 mmol/L Hepes pH 7.4, 120 mmol/L NaCl, 1 mmol/L EDTA, 1% NP-40, 5% glycerol); western blot", "note": "These are yes or no findings as the source states them, for the method shown. In cells and extracts the contact can be indirect.", "data": [{"substance": "p53 (from UniProt P04637 1-393)", "values": [{"measurement": "binding", "result": "no binding"}]}]}
